Among the data in the supplement of paper PMC12819154, “High-throughput peptide-centric local stability assay extends protein–ligand identification to membrane proteins, tissues and bacteria” (Nature Structural & Molecular Biology, 2025) are log2 fold change values, retold here.

The chains behind the UniProt entries cited, without tags or fusion partners. Where a name states a change or a piece, a line headed by the entry shows the natural chain unless it says otherwise.
UniProt Q6P9G9: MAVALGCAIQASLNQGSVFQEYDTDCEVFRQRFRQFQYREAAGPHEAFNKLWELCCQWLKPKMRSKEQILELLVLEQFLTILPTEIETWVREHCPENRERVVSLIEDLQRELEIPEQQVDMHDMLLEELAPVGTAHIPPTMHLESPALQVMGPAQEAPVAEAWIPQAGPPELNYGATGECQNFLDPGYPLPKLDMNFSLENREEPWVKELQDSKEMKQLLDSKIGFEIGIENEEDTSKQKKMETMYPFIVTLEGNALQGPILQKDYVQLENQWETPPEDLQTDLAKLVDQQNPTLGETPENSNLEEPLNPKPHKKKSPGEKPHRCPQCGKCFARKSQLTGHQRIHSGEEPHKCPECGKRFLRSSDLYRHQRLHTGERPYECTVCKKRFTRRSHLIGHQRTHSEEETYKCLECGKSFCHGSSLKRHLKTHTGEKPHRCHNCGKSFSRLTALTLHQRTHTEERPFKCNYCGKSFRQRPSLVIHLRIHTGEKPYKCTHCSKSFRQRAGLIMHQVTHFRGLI
UniProt Q6P0N0: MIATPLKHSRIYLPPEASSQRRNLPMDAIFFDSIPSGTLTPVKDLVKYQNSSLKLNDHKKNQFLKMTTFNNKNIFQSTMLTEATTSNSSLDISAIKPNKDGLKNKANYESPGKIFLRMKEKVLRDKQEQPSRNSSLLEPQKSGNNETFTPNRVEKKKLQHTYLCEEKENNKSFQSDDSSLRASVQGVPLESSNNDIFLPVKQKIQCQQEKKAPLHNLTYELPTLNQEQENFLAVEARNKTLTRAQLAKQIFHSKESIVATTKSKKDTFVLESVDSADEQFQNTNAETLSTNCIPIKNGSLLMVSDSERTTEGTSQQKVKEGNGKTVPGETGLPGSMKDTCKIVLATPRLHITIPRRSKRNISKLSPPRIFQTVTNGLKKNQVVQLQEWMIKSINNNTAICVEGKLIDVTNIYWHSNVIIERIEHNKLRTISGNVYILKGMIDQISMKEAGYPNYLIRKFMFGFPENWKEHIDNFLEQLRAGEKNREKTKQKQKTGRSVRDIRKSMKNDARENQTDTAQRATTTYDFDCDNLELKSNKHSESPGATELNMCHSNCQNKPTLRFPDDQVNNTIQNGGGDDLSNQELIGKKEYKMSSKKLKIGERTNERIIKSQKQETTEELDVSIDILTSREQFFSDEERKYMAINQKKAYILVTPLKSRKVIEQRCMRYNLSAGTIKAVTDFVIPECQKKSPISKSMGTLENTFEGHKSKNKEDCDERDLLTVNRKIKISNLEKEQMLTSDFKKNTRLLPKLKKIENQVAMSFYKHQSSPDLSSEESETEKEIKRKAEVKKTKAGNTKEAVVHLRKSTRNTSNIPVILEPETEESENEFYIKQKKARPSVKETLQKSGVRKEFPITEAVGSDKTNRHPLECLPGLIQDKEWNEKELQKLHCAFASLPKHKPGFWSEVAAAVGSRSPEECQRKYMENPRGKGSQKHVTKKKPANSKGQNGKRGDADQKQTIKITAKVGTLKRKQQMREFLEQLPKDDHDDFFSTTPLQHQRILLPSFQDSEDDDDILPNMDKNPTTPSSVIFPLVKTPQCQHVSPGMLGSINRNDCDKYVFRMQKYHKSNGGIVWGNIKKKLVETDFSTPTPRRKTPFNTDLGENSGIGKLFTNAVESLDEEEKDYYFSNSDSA
UniProt Q6YN16: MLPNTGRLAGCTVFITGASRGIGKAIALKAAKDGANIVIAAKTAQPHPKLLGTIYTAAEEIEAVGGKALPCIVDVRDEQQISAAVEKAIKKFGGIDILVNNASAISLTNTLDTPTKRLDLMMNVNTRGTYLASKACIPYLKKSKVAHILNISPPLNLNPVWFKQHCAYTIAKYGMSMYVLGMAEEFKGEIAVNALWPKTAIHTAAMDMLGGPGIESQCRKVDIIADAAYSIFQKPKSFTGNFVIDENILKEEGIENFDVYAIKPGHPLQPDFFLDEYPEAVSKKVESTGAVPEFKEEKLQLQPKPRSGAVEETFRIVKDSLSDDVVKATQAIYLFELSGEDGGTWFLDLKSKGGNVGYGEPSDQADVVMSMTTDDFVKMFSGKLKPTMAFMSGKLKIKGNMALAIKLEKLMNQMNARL
UniProt Q6DCA0: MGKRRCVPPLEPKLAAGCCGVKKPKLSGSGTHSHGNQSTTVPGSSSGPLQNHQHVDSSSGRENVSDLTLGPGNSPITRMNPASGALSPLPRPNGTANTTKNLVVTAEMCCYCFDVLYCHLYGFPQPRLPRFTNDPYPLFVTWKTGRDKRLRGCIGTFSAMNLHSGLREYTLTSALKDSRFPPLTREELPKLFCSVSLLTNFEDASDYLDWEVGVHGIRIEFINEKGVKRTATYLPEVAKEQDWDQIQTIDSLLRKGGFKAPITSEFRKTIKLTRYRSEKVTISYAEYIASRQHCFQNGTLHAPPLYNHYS
UniProt Q6JBY9, whole entry: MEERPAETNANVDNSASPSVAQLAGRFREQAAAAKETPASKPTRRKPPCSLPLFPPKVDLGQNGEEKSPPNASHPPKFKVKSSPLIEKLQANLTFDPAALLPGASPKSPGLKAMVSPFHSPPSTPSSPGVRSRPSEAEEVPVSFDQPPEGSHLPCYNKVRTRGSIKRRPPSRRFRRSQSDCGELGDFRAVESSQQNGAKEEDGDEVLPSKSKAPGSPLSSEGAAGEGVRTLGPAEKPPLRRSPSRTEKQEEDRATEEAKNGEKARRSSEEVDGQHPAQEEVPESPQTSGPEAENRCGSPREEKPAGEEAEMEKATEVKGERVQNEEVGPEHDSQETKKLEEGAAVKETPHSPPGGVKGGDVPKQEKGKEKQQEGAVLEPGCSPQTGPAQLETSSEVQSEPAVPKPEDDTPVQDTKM
UniProt Q6DN90: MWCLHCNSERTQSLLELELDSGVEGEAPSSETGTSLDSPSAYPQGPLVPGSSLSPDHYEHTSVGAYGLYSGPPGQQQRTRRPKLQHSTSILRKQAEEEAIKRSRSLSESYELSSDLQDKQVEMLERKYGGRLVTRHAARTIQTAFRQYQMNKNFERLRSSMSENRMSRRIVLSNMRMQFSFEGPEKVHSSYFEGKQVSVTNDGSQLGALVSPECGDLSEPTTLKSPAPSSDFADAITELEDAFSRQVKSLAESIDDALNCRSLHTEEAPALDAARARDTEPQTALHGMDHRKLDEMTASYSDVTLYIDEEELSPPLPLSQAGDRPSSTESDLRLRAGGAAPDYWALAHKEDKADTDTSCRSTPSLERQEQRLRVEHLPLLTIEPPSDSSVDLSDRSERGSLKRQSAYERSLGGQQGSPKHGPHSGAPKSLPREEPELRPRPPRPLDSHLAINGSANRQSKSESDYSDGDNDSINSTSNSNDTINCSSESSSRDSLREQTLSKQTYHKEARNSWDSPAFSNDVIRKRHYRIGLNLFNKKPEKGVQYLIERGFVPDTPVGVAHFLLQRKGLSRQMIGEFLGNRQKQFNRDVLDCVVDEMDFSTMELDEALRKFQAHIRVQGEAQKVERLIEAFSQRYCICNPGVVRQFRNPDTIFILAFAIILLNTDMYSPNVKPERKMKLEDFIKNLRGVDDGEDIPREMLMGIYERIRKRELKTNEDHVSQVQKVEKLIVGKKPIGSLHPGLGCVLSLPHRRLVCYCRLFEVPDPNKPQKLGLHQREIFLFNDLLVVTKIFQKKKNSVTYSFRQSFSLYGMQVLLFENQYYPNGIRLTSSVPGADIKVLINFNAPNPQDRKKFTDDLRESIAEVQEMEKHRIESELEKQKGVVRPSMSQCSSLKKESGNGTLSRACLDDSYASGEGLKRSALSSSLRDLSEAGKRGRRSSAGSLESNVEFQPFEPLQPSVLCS
UniProt Q68DI1: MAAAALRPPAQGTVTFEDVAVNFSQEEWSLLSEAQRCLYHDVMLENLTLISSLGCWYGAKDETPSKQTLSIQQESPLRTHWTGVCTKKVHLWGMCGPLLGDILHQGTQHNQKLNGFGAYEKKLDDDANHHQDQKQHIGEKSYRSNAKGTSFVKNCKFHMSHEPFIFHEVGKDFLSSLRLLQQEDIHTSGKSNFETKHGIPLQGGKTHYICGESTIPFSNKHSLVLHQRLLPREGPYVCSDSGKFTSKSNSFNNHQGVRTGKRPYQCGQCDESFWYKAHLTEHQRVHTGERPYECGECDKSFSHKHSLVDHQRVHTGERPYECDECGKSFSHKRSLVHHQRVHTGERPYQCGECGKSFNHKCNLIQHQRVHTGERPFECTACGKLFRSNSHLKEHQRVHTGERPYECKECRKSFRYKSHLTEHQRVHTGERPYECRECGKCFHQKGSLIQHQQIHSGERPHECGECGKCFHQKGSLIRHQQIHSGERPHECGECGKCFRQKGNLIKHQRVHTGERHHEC
UniProt Q6P3R8: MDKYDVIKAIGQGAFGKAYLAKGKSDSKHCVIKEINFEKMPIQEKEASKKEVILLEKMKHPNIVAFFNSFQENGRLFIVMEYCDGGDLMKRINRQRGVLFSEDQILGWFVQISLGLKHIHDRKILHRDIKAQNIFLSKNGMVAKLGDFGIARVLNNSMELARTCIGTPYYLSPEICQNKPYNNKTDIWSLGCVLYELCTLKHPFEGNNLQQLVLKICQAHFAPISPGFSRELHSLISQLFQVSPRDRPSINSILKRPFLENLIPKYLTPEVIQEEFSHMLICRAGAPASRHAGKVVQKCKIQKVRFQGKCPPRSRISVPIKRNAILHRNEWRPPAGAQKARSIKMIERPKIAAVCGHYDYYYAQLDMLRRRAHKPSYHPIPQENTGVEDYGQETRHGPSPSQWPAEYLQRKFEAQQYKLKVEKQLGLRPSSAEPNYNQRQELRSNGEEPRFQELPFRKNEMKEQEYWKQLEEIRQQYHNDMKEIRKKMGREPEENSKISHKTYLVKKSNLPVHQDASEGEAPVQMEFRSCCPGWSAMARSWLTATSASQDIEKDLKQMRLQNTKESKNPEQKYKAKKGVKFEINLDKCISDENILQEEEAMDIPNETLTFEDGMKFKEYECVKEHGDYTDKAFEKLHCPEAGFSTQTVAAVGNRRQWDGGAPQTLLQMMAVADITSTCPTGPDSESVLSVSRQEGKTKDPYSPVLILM
UniProt Q6UXG8: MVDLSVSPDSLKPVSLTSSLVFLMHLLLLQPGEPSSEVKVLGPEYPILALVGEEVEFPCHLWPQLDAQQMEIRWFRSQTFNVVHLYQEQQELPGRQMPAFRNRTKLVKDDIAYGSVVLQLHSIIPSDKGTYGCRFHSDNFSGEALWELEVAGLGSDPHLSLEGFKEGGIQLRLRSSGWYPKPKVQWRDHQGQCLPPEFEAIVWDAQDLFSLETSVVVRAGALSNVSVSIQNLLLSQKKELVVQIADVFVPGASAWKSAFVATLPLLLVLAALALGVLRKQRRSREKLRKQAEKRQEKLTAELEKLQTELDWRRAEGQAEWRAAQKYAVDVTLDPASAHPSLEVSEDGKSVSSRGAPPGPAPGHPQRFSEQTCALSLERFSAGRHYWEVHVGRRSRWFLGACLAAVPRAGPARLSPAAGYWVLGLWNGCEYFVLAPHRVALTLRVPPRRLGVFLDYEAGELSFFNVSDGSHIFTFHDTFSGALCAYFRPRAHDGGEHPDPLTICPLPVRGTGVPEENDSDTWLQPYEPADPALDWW
UniProt Q6AW86: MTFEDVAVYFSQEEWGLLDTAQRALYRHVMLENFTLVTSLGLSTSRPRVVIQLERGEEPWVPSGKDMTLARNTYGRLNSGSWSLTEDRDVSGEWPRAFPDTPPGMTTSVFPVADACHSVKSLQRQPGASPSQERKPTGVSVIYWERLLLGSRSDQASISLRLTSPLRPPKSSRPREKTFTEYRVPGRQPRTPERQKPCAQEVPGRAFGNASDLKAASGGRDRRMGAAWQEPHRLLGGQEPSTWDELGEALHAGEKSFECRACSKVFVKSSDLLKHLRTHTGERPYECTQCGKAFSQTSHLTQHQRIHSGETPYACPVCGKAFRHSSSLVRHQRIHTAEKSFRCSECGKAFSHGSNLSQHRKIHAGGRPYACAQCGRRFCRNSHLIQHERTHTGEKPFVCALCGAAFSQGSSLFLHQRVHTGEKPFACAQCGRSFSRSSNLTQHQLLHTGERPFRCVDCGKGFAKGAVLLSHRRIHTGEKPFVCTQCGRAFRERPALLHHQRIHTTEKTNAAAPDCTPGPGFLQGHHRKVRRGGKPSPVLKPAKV
UniProt Q6NXR0: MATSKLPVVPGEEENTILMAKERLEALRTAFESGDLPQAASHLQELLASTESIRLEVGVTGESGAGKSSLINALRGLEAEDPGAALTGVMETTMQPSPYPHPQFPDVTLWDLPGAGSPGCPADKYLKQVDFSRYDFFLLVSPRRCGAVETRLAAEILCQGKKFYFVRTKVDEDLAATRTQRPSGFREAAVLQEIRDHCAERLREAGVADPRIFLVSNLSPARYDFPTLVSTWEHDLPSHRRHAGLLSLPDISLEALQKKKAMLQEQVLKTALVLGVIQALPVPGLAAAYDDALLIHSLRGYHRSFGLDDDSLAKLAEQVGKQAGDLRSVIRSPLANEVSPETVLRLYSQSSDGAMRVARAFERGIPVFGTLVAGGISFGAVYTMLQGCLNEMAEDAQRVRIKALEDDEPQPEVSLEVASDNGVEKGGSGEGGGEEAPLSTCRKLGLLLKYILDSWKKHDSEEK

This is one part of the list. Most entries show no effect beyond the scatter of the controls.

Compound in this experiment: CN[C@@H]1C[C@H]2O[C@@](C)([C@@H]1OC)n1c3ccccc3c3c4c(c5c6ccccc6n2c5c31)C(=O)NC4 [staurosporine]
The experiment in a line: log2 fold change of tryptic peptide abundance, ligand vs vehicle (limited proteolysis) (log2 ratio); higher = more trypsin-susceptible (destabilized). Particulars: ligand concentration: 20 uM; sample: K562 cleared lysate; digestion: 4 min, 22 C (HT-PELSA RT4min, Orbitrap Astral).
Regarding “UniProt Q6PII3 (peptide sequence: EFSFGYWSKR, peptide start residue: 369)”, the log2 fold change is -0.484.

Turning to “UniProt Q6P9G9 (peptide sequence: VVSLIEDLQR, peptide start residue: 101)”, the log2 fold change turned out to be 0.422.

Turning to “C14ORF106 (peptide sequence: AYILVTPLK, peptide start residue: 648) (UniProt Q6P0N0)”, the log2 fold change was -0.489.

“HSDL2 (peptide sequence: KVESTGAVPEFK, peptide start residue: 284) (UniProt Q6YN16)”: the log2 fold change was -0.46.

In the case of “AMMECR1L (peptide sequence: ENVSDLTLGPGNSPITR, peptide start residue: 62) (UniProt Q6DCA0)”, the log2 fold change was -0.237.

As to “UHRF1BP1 (peptide sequence: WHEETGLKPPWHLGVDSLFR, peptide start residue: 408) (UniProt Q6BDS2)”, the log2 fold change is -0.947.

For the target “RCSD1 (peptide sequence: EEKPAGEEAEMEK, peptide start residue: 301) (UniProt Q6JBY9)”, the log2 fold change was -0.124.

In the case of “UniProt Q68EA5 (peptide sequence: TFTWSSTLHNHVR, peptide start residue: 484)”, the log2 fold change is 0.43.

For the target “UniProt Q6S8J3 (peptide sequence: VAPEEHPILLTEAPLNPK, peptide start residue: 796)”, the log2 fold change came to 0.364.

“IQSEC1 (peptide sequence: QMIGEFLGNR, peptide start residue: 572) (UniProt Q6DN90)”: the log2 fold change turned out to be 0.142.

On to “UniProt Q68DI1 (peptide sequence: EGPYVCSDSGK, peptide start residue: 233)”, for which the log2 fold change is -0.197.

Regarding “UniProt Q6NXR4 (peptide sequence: KVVNYIR, peptide start residue: 488)”, the log2 fold change came to 0.431.

“UniProt Q659A1 (peptide sequence: NPVSMETK, peptide start residue: 953)”: the log2 fold change was -0.45.

On to “NEK5 (peptide sequence: SCCPGWSAMAR, peptide start residue: 529) (UniProt Q6P3R8)”, for which the log2 fold change was -0.416.

Take “STEAP3 (peptide sequence: EHYSSLCSLSDQLAGK, peptide start residue: 94) (UniProt Q658P3)”: the log2 fold change was found to be 1.61.

As for “ARMCX5 (peptide sequence: VLSSLVAPFNKNESK, peptide start residue: 474) (UniProt Q6P1M9)”, the log2 fold change was -0.217.

With “UniProt Q6UXG8 (peptide sequence: AHDGGEHPDPLTICPLPVR, peptide start residue: 490)”, the log2 fold change is -0.162.

For “UniProt Q6AW86 (peptide sequence: GEEPWVPSGK, peptide start residue: 56)”, the log2 fold change was determined as 0.455.

Consider “KANK2 (peptide sequence: FLGHPTAGR, peptide start residue: 235) (UniProt Q63ZY3)”, for which the log2 fold change amounted to 0.436.

On to “UniProt Q6NXR0 (peptide sequence: KKAMLQEQVLK, peptide start residue: 259)”, for which the log2 fold change worked out at 0.617.

Take “RRAGB (peptide sequence: LAASFQSMEVR, peptide start residue: 245) (UniProt Q5VZM2)”: the log2 fold change is -0.394.

For the target “SASS6 (peptide sequence: VAVLEQEIKDKDQLVLR, peptide start residue: 324) (UniProt Q6UVJ0)”, the log2 fold change is -0.436.

Turning to “ZC3H14 (peptide sequence: HEAAVPPLAIPSARPEKR, peptide start residue: 110) (UniProt Q6PJT7)”, the log2 fold change was -0.309.

With “NCAPH2 (peptide sequence: GPSFADMEVLYWTHVK, peptide start residue: 383) (UniProt Q6IBW4)”, the log2 fold change was -0.383.

As to “UniProt Q6ZMV8 (peptide sequence: IHTGEKPYECEECGK, peptide start residue: 335)”, the log2 fold change was -0.369.
